# Percent effect of library compounds

The chains behind the UniProt entries cited, without tags or fusion partners. Residues count along the entry.
UniProt A4I591, 1-473: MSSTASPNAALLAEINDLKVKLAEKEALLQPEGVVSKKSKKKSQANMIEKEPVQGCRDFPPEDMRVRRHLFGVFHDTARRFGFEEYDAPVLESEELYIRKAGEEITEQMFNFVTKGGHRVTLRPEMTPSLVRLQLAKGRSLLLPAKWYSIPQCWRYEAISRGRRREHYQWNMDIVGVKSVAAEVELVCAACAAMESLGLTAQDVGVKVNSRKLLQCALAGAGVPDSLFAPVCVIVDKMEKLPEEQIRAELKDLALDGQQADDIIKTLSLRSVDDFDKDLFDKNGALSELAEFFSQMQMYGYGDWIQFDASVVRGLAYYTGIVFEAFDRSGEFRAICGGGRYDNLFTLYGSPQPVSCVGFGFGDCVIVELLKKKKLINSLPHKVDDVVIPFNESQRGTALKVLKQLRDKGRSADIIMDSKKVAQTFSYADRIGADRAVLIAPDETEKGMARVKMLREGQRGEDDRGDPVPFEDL
UniProt Q4DA54, 1-478: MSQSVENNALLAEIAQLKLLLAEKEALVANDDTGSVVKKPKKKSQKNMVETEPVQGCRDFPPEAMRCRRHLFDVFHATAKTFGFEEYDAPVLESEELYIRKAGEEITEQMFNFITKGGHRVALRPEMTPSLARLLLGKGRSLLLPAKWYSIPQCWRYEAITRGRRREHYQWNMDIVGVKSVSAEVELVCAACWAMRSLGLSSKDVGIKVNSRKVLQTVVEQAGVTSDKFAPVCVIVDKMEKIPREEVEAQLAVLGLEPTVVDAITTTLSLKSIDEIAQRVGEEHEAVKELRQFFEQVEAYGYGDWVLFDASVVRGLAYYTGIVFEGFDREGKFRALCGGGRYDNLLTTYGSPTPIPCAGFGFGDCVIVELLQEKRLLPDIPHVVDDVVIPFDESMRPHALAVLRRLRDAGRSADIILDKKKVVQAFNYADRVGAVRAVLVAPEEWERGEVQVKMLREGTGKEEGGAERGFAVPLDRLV
UniProt Q8IDJ8, 1-583: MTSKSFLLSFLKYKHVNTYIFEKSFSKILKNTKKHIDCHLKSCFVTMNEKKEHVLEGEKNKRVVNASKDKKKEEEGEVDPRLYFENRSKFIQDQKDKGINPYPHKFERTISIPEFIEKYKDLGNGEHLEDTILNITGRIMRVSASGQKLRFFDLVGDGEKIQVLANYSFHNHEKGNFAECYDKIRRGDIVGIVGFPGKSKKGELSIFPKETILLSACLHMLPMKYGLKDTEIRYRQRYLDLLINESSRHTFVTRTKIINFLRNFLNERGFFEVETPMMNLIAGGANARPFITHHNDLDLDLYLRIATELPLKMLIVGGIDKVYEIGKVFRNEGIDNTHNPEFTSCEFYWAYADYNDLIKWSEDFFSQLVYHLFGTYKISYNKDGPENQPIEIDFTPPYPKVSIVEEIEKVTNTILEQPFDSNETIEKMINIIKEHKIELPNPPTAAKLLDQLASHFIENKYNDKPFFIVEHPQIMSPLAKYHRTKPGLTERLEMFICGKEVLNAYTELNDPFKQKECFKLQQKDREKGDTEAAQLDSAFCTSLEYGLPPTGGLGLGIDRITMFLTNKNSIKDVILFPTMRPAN

LiHisRS: 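Enzyme assay of histidyl-tRNA synthetase; the read-out is not stated. Target: Histidine-tRNA ligase, Leishmania infantum (UniProt A4I591). Concentration: 30 µM. Direction is inferred from retests: higher values go with stronger inhibition. The assay is labelled LdHisRS but filed under L. infantum. Size under these conditions: about 69,000 compounds, about 410 of them at 50% or above in at least one test.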
TcHisRS: 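Histidine-tRNA ligase, Trypanosoma cruzi CL Brener (UniProt Q4DA54). Enzyme assay of histidyl-tRNA synthetase; the read-out is not stated. Tested at 30 µM. Higher reads as stronger inhibition (inferred: compounds with an IC50 in retests scored well above the rest). Of about 69,000 compounds tested this way, about 31 (0.045%) reached 50% or more in at least one test.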
PfKRS1: 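Enzyme assay of the cytosolic lysyl-tRNA synthetase in 384-well plates, read by luminescence. Target: Lysine-tRNA ligase, Plasmodium falciparum 3D7 (UniProt Q8IDJ8). Concentration: 30 µM. Direction is inferred from only a few compounds that gave an IC50; most scored high, so higher reads as stronger inhibition. Size under these conditions: about 69,000 compounds, about 49 of them at 50% or above in at least one test.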
Leishmania in macrophages: 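Cell assay of Leishmania donovani living inside macrophages; the read-out is not stated. Tested at 30 µM. The record gives no direction; compounds that gave an IC50 in retests scored well above the rest, so higher reads as stronger inhibition. About 69,000 compounds were tested under these conditions; 1.5% (about 1,000) showed 50% or more at least once.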

Values are the deposited “Percent Effect”, in %.
The record does not define 0% and 100%; most values in the screen are far below 50% and negative numbers occur (in some assays of this library far below -100).
Compounds were drawn at random from those tested, without regard to their results.
Two or more numbers in one place are separate tests of the same structure; such repeats can differ widely.
A dash means the value is not listed here; it may have been measured.

SMILES	LiHisRS	TcHisRS	PfKRS1	Leishmania in macrophages
CN(Cc1ccsc1)C(=O)Nc1cccnc1N1CCCC1	19.7	3.03	-5.027	-3.913
O=C(c1ccnnc1)N1CCN(Cc2ccncc2)c2ncccc2C1	18.06	4.762	-2.406	-
[H][C@@]12CNC[C@]1([H])N(C(=O)C1CCCC1)CCO2	-	-	-	-8.168
O=c1c2ccccc2nc2n1C(CSc1cccc(C(F)(F)F)c1)CN2 (centres unmarked)	14.58	4.167	1.587	10.9
COCC(=O)N1CC[C@@H]2O[C@H](COCc3csc(C)n3)CC[C@@H]21	11.76	6.897	1.788	-
O=C(NCCN1CCCCC1)c1nc(-c2cccc3[nH]ccc23)no1	18.42	-2.924	1.333	0.6079
CCOCc1nc2c(c(N3CC=CC3)n1)CCN(C1CCOCC1)CC2	17.14	10.2	1.114	11.52
CC(C(=O)NCCc1ccc2c(c1)OCCO2)n1cncn1 (centres unmarked)	8.235	10.05	0.2884	27.84
[H][C@@]12COC[C@]1(c1nnc(C3CC3)o1)CN(C(=O)C(C)(C)C)C2	-	-	-	1.265
COCCCN1Cc2cccc(NC(=O)c3cc(F)ccc3F)c2C1	20.54	16.67	2.379	15.17
O=S(=O)(c1ccccc1F)N1CCC(Oc2cccnn2)CC1	6.612	4.082	4.081	25.07
CSCc1noc(Cn2ccc3ccccc3c2=O)n1	14.75	7.071	10.18	-43.61
CCc1cc(N[C@@H](CO)C(N)=O)n2nc(C)c(C)c2n1	14.89	7.514	1.142	-29.51
[H][C@]12CCCCN1CCC[C@H]2Cn1ccnc1-c1ccc(OC)cc1	-	-	-	23.07
O=C(c1ccc(NC2CC2)nc1)N1CCCC(n2ccnc2)C1 (centres unmarked)	5.357	1.183	0.4331	30.04
COc1ccc2c(=O)n(CC3CCCCN3C)ccc2c1OC (centres unmarked)	9.091	1.087	5.981	-4.434
Cc1csc2ncnc(N3CCCC(Cn4cc(C(C)(C)O)nn4)C3)c12 (centres unmarked)	16.87	7.182	4.009	20.33
Cc1cc(F)ccc1OC1(C(=O)O)CCN(Cc2c[nH]cn2)CC1	10.53	5.464	3.882	10.5
Nc1nc2c(c3c1C(=O)NC3=O)CCCC2	0	0	-2.431	-0.315
Cc1nc(C)n(CC2CCCCN2CC(=O)NCc2ccccn2)n1 (centres unmarked)	15.66	6.098	7.496	-14.42
CCCNCc1cn(Cc2ccccc2)nc1-c1cccnc1.Cl	-	-	-	26.91
Cc1nc(CN2CCC(c3ccnn3CCO)CC2)oc1C	7.143	2.305	1.631	6.936
COc1cccc(F)c1C(C)NC(=O)NCCc1ccc(C)nc1 (centres unmarked)	19.17	3.947	-3.951	-3.218
Cc1noc(C)c1C(C)C(=O)N1CCCN(C)c2ccc(Cl)cc21 (centres unmarked)	7.143	4.95	5.065	23.69
CCn1c(Cn2cncn2)nnc1C1CCN(Cc2cccnc2)CC1	-5.128	3.614	-1.05	15.61 and -6.192
CN(C)C(=O)N1C[C@@H]2CC[C@H](C1)N(S(=O)(=O)c1cccnc1)C2	12.05	2.762	-3.098	-
Cc1nc(CN2Cc3nccn3CC(CN3CCOCC3)C2)cs1 (centres unmarked)	27.03	-0.4975	9.461	-
Cc1cnn(-c2ccc(S(N)(=O)=O)cc2F)c1	27.4	1.587	-0.08027	-25.39
Cc1ncc(CN2CCC(c3nc4cc(Cl)ccc4o3)CC2)s1	24.49	10.26	-3.969	30.67
Cc1oc(-c2ccccc2)nc1CC(=O)NC1=NCCS1	8.621	4.712	7.097	9.424
CCN1CCn2c(C)cnc2C12CCN(C(=O)c1ccco1)CC2	17.43	3.365	-0.4012	-
COCCn1cc(C(=O)N2CCCC2c2cnn(C)c2)ccc1=O (centres unmarked)	9.677	3.093	2.918	31.67
CCCOC1CCCN(C(=O)Cn2cccc(C(F)(F)F)c2=O)C1 (centres unmarked)	10.26	1.622	8.496	9.452
O=C(CN1CCC2(CC1)NC(=O)c1cc(Br)ccc1N2)NC1CC1	11.59	6.818	1.409	29.45
CCN(CC)C(=O)Cn1c(-c2ccc(Cl)cc2)nc(C)c(CCO)c1=O	17.39	12	1.881	33.45
Cc1csc(N(C)C(=O)C(c2c(F)cccc2Cl)N(C)C)n1 (centres unmarked)	10.26	6.18	3.376	-16.96
CCOc1ncnc2c1CCN(C(=O)c1ccncc1F)CC2.O=C(O)C(F)(F)F	-	-	-	-13.62
CC(=O)N1CCCC1C(=O)NCCOc1c(C)cccc1C (centres unmarked)	3.846	3.429	-1.051	21.12
Cc1oncc1C(=O)N1CCCc2c(C#N)nn(C)c2C1	-133.3	-103.8	4.861	25.26
COCCN(C)CC(=O)N1C[C@@H](NC(C)=O)[C@H](c2ccc(OC)cc2)C1	17.54	-2.186	2.687	-3.245
C[C@]1(O)CN(Cc2cccc(C(=O)O)c2)CC[C@@H]1Oc1cccc(F)c1	18.84	15.38	2.728	5.269 and -7.023
Cc1cnn(CC2CCCN2C(=O)c2ccc(OC(C)C)nc2)c1 (centres unmarked)	-2.128	2.29	0.8909	30.1
O=S(=O)(NCC1(O)CCOCC1)c1ccccc1Br	17.39	4.124	6.87	-20.3 and 0.998

Data taken from ChEMBL document CHEMBL3988442, “University of Dundee, Small-Polar-MMV Screening Library” (2021).